Laboratory results published in publication PMC12172621 (ACS chemical neuroscience, 2024).

Assay: in vitro
Settings: mouse

## CCCCc1oc2ccccc2c1C(=O)c1cc(I)c(OCCN(CC)CC)c(I)c1 [amiodarone]
  CC50: 6.3 µM
